Data reported in PMC10338675.
These are yes or no findings as the source states them, for the method shown. Binding seen in cells or lysates may run through a third protein. Some binding calls cover weakened binding; strength is not graded here. Where a sequence is shown, tags or fusion partners need not be part of it.

Amino acid sequences for entries named in this document (tags omitted).
UniProt Q01469: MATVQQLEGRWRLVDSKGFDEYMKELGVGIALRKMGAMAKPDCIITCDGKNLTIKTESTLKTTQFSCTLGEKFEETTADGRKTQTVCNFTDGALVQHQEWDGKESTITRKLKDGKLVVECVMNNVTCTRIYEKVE

Molecular target: T1, neuroblastoma-associated small protein (NBASP), encoded by ORF1 of FAM201A, with a C-terminal FLAG tag (human) (UniProt Q5SY85)
T1 sequence: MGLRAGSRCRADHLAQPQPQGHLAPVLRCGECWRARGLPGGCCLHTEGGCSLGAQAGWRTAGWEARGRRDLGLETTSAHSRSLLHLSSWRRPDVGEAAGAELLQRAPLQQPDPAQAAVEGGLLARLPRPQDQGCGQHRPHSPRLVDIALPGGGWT
Experiment: co-IP; whole cell lysates; Dynabead Protein G Immunoprecipitation Kit; anti-FLAG and anti-HA antibodies; western blotting

fatty acid-binding protein 5 (FABP5) (from UniProt Q01469 1-135)
binding: binds
